Literature values in US20170202802A1, “COMPOSITIONS, KITS AND METHODS FOR NUTRITION SUPPLEMENTATION” (Exeltis USA, Inc., priority 2016, published 2017).
For at least one compound, name, drawing or mass did not settle the structure.

Details: DHA supplementation during pregnancy; cited from earlier work

CC/C=C\C/C=C\C/C=C\C/C=C\C/C=C\C/C=C\CCC(=O)O [DHA, docosahexaenoic acid]
increase in length of gestation: about six
